# Measured values: patent US8551921B2, “Method for determining the toxicity of an environmental or chemical sample” (priority 2000, dated 2013)
# “And” between values parts separate entries of the source, which are not always exact repeats. Identical values can stand only once. Counter-ions that a name gives are not always drawn.
# Assays:
# [1] = system: Photobacterium phosphoreum; conditions: IC50-values, established assay; cited from earlier work
# [2] = system: E. coli; conditions: IC50-values, established assay; cited from earlier work
# [3] = system: Daphnia; conditions: IC50-values, established assay; cited from earlier work
# [4] = system: microorganism no. 7; assay: MARA indicator device toxic fingerprint, microorganism no. 7; conditions: Microbial Toxic Concentration; incubation time 16 h; HCl
# Description: (§1) • dispense 150 μl of growth medium with indicator in each well • add a concentration gradient of the chemical to be tested to rows B-H in a MARA plate (i.e. an indicator device according to the present invention) • incubate for 16 h • read absorbance values; and • analyse with software.
# (§2) Microbial responses to different chemicals was estimated by kinetic measurements of their growth using the Labsystem automated IEMS reader. A computer software that could monitor incubation temperatures, reading intervals, and automatically transfer OD data to a computer was developed. A growth medium containing 0.05% peptone, 0.011% bromothymol blue (BTB), 1% sodium chloride and 0.3% glucose was added to all wells. The glucose acts as a carbon source, and during growth the microorganism will break down the glucose and produce acids, that will turn the initially blue indicator to yellow. Each microplate contains 12 columns and 8 rows, and thus in each plate, 11 lyophilized microbial strains were used (one for each column, the 12th column was used as negative control). […] In order to avoid drying out of the plates during the incubation, one drop of sterile mineral oil was added to each well. The plate was then incubated in the IEMS spectrophotometer and the absorbance value from each well was measured every second hour during 48 h. […]
# [5] = system: 11 different microbial strains
# Description: as §1, §2
smiles,measurement,setting,value
Cc1ccccc1C(OCCN(C)C)c1ccccc1 (stereo not drawn) [Orphenadrin HCl],Inhibitory concentrations by method: Microtox,[1],0.119 mg/mL
same,Inhibitory concentrations by method: E. coli,[2],0.701 mg/mL
same,Inhibitory concentrations by method: Daphnia,[3],0.011 mg/mL
same,Toxic fingerprint: MTC value for microorganism no. 7,[4],0.133 and 0.147
same,Inhibitory concentrations by method: MARA MTCmin,[5],0.100 mg/mL
same,Inhibitory concentrations by method: MARA MTCmean,"[5]; 11 microbial strains (panel, species not named)",0.139 mg/mL
CSc1ccc2c(c1)N(CCC1CCCCN1C)c1ccccc1S2 (stereo not drawn) [Tioridazin HCl],Inhibitory concentrations by method: Microtox,[1],0.008 mg/mL
same,Inhibitory concentrations by method: E. coli,[2],0.059 mg/mL
same,Inhibitory concentrations by method: Daphnia,[3],0.005 mg/mL
